Results are given in words; binding and its absence hold for the method and conditions named. Binding seen in cells or lysates may run through a third protein. Some binding calls cover weakened binding; strength is not graded here. Tags and fused reporters may be left off the sequences shown.

The assay addresses JCV agnoprotein, epitope-tagged (Myc-tagged agnoprotein and Flag-tagged agnoprotein) (JC virus (JCV)) (UniProt P03086). Kind of assay: co-IP; 293T cells transfected with Myc-agnoprotein/Flag-agnoprotein, 72 h; lysed in TNE buffer (10 mM Tris-HCl pH 7.5, 150 mM NaCl, 5 mM EDTA, 10% glycerol, 1% Triton X-100); immunoprecipitation with anti-Flag antibody on protein G-Sepharose, 4 h at 4°C; immunoblot. A general note: In western blotting, separated proteins are transferred to a membrane and probed.

B1: JCV agnoprotein expressed in JCV-infected SVG-A cells (natural protein)
chain: MVLRQLSRKASVKVSKTWSGTKKRAQRILIFLLEFLLDFCTGEDSVDGKKRQRHSGLTEQTYSALPEPKAT
notes: JC virus (JCV) agnoprotein made from the viral genome in infected cells; monomer about 8 kDa; The virus was prepared from JCI cells or JC virus-infected SVG-A cells; source: SVG-A cells infected with JCV for 1 week
Take B1: the binding entry was “binds”.

Values taken from article PMC2837404, “The Human Polyoma JC Virus Agnoprotein Acts as a Viroporin” (PLoS Pathogens, 2010).
